# Paper PMC6538628
# The chains behind the UniProt entries cited, without tags or fusion partners. Where a name states a change or a piece, a line headed by the entry shows the natural chain unless it says otherwise. Residues count along the entry.
# UniProt O55005: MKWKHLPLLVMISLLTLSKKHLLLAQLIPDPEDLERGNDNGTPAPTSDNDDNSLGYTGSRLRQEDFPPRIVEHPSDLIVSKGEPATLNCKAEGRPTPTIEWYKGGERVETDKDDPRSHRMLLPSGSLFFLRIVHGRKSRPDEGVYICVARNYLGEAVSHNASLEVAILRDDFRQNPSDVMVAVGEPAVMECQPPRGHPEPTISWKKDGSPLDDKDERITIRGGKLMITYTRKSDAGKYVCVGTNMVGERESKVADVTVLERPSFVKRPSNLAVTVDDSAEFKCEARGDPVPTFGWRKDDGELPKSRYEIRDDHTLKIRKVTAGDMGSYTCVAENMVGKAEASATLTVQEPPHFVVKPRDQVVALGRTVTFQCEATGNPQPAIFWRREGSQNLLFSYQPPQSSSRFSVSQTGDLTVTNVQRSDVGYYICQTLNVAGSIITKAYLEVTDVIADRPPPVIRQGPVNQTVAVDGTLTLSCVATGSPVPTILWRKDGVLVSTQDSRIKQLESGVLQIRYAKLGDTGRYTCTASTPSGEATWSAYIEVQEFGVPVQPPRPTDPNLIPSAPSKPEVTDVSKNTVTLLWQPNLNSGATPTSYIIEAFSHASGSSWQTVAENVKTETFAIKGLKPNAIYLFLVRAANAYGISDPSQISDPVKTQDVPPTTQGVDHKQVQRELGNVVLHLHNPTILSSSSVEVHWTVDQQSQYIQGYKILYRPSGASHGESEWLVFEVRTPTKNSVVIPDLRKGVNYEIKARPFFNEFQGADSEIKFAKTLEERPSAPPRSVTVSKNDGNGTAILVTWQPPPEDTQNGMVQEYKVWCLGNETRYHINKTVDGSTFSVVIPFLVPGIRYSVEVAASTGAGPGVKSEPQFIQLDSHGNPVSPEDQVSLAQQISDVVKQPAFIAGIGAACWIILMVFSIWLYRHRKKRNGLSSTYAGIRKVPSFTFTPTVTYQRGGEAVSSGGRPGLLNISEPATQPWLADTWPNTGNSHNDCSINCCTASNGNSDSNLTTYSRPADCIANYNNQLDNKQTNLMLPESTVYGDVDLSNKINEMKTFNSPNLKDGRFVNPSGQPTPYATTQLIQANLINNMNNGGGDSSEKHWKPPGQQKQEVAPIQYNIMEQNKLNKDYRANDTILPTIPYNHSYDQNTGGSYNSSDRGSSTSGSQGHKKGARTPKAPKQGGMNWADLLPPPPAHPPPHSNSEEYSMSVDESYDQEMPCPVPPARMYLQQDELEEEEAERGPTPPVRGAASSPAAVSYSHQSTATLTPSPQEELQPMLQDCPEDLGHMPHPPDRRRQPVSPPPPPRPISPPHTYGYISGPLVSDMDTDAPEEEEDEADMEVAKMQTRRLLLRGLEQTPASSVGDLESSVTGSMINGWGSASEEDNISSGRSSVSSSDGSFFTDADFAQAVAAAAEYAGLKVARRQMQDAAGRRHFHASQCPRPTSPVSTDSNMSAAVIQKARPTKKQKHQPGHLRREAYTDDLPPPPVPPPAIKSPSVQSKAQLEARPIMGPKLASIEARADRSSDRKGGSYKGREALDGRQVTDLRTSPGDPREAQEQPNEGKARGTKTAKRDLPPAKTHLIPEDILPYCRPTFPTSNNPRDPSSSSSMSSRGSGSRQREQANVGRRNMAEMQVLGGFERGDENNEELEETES
# UniProt P35968, residues 20-1356: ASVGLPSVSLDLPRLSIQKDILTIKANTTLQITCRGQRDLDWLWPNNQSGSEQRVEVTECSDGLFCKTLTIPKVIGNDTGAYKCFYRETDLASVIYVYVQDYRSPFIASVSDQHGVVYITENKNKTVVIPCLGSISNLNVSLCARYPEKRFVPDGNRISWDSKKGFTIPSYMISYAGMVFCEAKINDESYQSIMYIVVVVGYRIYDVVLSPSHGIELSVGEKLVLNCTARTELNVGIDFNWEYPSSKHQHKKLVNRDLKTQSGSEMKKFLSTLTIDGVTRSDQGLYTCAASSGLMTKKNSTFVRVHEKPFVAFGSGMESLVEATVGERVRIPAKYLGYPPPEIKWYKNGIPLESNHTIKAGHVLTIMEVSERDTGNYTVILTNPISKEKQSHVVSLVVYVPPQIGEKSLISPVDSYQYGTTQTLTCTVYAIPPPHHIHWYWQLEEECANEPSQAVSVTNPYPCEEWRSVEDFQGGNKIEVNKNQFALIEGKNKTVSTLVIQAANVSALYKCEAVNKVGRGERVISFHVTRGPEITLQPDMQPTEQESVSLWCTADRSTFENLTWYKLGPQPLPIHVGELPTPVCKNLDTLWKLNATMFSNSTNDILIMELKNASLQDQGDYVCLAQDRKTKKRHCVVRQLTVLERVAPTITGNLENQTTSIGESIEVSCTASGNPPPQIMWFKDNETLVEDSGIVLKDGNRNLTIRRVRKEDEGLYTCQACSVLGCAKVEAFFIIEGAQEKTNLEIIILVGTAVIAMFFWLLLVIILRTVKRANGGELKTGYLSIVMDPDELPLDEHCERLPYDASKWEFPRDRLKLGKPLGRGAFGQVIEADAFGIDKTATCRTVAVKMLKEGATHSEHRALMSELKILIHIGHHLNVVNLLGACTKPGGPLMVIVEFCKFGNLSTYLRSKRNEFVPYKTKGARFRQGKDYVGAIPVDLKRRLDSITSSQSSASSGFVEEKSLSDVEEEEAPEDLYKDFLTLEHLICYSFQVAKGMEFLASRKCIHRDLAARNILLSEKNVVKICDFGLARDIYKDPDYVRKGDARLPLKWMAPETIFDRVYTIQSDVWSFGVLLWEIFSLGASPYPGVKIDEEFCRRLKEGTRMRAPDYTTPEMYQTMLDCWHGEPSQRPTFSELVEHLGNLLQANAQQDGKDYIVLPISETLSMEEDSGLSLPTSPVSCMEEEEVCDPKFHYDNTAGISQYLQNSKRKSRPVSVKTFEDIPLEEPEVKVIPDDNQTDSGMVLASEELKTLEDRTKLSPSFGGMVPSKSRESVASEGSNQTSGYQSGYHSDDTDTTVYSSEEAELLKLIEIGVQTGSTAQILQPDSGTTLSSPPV
# Results are given in words; binding and its absence hold for the method and conditions named. Binding seen in cells or lysates may run through a third protein. Binding can be weak; no strength is given.
# Target: rat ROBO1 lacking the CC3 domain, GFP tagged (rat) (UniProt O55005)
# Assay: co-IP; GFP immunoprecipitation (anti-GFP, protein A/G magnetic beads) from ROBO1/2 siRNA silenced HUVECs transduced with adenoviral ROBO1WT-GFP or ROBO1ΔCC3-GFP; lysis in 50 mM Tris-HCl pH 7.4, 50 mM NaCl, 0.5% Triton X-100; western blot; beads alone as control
substance,measurement,value
VEGF receptor 2 (from UniProt P35968 20-1356),binding,binds
